# The other results are listed elsewhere or left out.
# By UniProt entry, the sequences of proteins in these tests, tags left out. Where a name states a change or a piece, a line headed by the entry shows the natural chain unless it says otherwise.
# UniProt Q32P28: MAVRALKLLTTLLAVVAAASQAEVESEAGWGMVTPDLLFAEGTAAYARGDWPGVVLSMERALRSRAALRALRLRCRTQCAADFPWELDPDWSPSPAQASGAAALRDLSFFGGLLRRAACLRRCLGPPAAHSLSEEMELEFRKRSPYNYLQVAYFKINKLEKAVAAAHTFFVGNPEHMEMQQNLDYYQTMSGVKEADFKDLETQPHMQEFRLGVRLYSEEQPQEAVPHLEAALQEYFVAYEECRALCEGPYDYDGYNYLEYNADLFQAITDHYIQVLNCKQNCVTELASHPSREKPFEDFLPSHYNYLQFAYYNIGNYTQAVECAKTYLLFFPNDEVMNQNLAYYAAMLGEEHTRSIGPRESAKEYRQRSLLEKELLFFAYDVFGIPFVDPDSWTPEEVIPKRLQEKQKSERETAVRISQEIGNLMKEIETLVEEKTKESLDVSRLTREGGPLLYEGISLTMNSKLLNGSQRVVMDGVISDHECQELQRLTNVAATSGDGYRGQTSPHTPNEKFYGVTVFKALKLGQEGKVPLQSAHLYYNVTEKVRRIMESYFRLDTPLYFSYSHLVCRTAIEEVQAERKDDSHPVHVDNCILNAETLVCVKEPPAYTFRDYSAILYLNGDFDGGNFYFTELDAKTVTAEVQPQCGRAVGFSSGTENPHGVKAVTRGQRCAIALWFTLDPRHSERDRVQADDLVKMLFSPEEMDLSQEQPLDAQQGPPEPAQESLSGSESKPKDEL
# UniProt P04181: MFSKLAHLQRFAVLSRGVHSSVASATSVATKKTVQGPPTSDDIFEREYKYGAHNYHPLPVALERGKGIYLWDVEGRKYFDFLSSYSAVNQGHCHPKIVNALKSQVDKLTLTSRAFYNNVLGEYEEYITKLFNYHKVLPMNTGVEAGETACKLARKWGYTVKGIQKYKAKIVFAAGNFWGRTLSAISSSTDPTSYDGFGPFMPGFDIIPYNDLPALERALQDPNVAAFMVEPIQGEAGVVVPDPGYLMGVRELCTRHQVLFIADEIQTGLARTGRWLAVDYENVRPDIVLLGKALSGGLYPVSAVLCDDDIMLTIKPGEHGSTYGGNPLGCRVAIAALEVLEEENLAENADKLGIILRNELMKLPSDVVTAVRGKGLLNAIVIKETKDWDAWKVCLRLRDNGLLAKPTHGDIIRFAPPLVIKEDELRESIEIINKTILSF
# UniProt Q9NV35: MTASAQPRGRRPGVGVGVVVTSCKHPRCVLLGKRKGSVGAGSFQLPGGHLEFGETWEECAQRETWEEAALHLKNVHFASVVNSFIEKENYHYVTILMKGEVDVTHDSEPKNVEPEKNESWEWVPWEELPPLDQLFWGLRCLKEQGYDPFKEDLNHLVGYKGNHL
# UniProt Q9BZF1: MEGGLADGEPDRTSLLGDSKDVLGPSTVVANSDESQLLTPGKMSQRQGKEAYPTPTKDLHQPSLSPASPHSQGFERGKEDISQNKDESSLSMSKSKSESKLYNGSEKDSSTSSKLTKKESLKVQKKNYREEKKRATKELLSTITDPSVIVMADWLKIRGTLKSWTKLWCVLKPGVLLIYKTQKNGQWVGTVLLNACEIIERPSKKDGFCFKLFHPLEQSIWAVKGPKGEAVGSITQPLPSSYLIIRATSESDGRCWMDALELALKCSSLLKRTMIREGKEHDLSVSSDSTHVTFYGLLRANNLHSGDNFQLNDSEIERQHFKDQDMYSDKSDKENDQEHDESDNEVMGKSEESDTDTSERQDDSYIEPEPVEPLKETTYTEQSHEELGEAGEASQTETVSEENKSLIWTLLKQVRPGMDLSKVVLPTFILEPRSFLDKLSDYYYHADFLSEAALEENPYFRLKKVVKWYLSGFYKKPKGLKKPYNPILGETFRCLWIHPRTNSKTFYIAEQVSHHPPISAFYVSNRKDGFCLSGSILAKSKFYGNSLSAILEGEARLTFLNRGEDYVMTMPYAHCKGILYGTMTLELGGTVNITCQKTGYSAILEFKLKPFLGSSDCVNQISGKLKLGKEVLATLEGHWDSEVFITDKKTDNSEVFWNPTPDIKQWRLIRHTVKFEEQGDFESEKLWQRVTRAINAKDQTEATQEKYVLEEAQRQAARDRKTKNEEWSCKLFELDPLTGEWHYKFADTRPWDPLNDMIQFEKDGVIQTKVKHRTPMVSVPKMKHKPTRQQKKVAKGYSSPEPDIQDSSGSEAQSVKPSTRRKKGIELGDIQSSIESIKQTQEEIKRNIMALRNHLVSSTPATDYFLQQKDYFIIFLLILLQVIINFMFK
# UniProt Q9Y530: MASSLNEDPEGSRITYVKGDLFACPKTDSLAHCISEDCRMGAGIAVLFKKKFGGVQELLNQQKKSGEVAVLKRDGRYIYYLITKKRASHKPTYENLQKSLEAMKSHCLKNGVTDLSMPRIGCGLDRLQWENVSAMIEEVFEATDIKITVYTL
# UniProt Q9H6K4: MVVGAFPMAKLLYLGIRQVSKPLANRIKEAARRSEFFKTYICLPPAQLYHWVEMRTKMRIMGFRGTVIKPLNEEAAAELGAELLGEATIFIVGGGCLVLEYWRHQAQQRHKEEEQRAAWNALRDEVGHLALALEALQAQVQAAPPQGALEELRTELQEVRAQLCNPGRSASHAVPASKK
# UniProt O15504: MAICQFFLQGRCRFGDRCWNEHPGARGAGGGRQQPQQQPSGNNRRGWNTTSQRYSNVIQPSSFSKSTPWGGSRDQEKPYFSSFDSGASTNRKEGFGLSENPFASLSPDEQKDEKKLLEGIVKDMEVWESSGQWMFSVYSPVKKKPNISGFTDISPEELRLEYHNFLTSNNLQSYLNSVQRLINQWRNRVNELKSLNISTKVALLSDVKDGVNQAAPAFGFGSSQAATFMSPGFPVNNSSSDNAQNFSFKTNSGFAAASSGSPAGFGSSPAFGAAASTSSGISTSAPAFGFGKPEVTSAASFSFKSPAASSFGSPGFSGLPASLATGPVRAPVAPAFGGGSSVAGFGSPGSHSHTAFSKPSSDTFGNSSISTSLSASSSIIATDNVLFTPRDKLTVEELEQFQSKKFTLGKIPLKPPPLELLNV
# UniProt O60502: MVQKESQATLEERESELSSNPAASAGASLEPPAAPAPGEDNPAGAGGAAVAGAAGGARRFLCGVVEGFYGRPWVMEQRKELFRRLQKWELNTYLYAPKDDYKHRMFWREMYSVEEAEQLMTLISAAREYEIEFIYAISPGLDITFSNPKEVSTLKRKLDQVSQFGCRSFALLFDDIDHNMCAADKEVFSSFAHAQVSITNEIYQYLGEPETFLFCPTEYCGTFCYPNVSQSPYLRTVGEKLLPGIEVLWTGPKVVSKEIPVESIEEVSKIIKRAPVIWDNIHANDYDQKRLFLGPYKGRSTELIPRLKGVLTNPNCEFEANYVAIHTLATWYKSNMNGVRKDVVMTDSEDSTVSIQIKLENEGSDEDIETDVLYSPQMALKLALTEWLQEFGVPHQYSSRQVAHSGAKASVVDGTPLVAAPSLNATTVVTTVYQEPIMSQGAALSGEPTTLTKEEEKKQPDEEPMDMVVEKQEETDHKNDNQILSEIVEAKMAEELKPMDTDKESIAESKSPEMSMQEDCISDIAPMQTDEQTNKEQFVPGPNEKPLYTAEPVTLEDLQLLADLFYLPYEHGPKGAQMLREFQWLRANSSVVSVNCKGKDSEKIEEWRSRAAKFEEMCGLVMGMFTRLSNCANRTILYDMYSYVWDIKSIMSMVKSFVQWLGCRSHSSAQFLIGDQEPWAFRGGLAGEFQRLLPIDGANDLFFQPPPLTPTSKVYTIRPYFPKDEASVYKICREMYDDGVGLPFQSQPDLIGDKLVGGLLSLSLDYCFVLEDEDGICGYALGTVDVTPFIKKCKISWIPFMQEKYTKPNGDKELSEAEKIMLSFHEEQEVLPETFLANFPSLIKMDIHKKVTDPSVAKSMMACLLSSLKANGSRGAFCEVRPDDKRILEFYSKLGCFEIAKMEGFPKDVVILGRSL
# UniProt Q9BQG2: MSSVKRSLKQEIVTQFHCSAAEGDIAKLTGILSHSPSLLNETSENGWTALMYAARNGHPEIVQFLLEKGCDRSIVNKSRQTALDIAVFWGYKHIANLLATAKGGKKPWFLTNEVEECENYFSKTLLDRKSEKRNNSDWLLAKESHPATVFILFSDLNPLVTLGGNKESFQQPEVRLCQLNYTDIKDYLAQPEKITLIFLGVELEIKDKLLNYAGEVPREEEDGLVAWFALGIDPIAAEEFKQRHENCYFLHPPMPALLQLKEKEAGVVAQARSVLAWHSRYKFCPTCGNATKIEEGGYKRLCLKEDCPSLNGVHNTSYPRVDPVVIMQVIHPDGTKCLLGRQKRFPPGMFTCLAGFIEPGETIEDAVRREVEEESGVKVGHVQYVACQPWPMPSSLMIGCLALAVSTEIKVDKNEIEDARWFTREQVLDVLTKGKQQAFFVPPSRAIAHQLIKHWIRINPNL
# UniProt Q86UY8: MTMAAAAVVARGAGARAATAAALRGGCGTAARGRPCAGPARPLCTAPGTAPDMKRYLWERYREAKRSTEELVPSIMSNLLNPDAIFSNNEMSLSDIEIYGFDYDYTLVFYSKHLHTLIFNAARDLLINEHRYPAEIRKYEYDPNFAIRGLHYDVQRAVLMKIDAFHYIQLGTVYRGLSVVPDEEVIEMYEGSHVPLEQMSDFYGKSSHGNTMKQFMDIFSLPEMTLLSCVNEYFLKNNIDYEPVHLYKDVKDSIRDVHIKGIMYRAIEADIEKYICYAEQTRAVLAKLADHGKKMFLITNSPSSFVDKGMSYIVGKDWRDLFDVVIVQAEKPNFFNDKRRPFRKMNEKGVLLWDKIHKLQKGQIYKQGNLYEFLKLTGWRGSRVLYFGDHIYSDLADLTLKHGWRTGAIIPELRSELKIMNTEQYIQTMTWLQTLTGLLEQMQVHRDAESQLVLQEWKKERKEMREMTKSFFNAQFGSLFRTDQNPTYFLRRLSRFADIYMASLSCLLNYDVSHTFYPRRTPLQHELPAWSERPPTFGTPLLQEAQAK
# UniProt Q13416: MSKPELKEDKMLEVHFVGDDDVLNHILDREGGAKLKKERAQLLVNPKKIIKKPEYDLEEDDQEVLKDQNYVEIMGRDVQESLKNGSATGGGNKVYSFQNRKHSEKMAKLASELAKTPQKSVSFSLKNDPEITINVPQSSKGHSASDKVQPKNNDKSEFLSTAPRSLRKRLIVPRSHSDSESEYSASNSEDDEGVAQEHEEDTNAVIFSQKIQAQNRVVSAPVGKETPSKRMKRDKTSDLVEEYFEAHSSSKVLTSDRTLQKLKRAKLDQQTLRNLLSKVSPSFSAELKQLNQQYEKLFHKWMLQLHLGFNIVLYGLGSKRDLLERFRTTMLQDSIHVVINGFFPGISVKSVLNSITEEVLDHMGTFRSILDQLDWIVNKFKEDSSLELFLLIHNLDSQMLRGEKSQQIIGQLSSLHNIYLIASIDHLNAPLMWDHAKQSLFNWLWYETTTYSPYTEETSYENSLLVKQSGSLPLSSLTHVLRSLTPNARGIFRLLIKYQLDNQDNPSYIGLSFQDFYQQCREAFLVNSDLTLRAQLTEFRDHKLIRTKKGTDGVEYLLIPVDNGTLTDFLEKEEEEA
# UniProt O95989: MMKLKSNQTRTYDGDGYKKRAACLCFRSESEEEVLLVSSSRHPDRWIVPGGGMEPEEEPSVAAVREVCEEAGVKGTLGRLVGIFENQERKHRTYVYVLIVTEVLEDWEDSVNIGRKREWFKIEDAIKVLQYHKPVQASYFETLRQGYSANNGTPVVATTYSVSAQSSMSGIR
# UniProt Q6GQQ9: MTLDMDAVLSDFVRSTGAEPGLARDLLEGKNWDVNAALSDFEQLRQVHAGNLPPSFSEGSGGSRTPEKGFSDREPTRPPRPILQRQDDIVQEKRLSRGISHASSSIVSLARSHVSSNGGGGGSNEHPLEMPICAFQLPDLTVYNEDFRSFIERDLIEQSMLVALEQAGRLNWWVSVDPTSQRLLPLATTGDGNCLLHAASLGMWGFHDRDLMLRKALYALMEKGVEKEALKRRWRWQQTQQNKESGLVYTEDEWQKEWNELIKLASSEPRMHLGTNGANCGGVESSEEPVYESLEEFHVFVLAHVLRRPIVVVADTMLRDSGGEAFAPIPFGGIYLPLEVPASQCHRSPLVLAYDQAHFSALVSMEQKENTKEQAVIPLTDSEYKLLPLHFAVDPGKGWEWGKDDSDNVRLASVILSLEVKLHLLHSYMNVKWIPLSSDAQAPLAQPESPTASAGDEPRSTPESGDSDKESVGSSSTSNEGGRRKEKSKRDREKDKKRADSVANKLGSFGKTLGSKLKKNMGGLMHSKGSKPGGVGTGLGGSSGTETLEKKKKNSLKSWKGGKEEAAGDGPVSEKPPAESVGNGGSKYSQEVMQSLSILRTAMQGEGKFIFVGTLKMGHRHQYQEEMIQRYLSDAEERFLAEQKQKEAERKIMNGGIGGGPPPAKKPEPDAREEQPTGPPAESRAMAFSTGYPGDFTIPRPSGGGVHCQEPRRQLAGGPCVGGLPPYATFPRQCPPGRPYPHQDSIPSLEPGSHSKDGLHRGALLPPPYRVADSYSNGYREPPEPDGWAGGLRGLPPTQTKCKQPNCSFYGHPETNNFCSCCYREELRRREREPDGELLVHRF
# Assays:
# Test in all cases: log2 fold change, soluble protein after heating vs DMSO (PISA); higher = thermal stabilisation; K562 cells, 10 uM, 30 min; active = over 0.2 and 3.5 SD of the protein, either way, in both replicates (recomputed)
# [1] = compound: CC[C@@H]1C(=O)N(C)c2cnc(Nc3ccc(C(=O)NC4CCN(C)CC4)cc3OC)nc2N1C1CCCC1
# Procedure, shortened: (§1)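 Thermal stability values are relative to control samples and come from duplicates. They are expressed as log2 fold changes. For measurement, K562 cells (2×10^6 cells/mL) received 10 μM compound for 30 min, and aliquots were heated for 3 min over 48°C-58°C, pooled, and extracted at 4°C in PBS with 0.5% NP-40. Soluble protein, the supernatant after 21,000xg for 90 min, was quantified by TMTpro 16plex LC-MS/MS with equalised channel sums.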
# volasertib = compound: CC[C@@H]1C(=O)N(C)c2cnc(Nc3ccc(C(=O)N[C@H]4CC[C@H](N5CCN(CC6CC6)CC5)CC4)cc3OC)nc2N1C(C)C [volasertib]
# Procedure, shortened: as §1
# [2] = compound: CC[C@H](C)N1C=C(C2=C(C=C(C=C21)C3=CN=C(C=C3)N4CCNCC4)C(=O)NCC5=C(C=C(NC5=O)C)C)C
# Procedure, shortened: as §1
# epoxomicin = compound: CC[C@H](C)[C@@H](C(=O)N[C@@H]([C@@H](C)O)C(=O)N[C@@H](CC(C)C)C(=O)[C@]1(CO1)C)NC(=O)[C@H]([C@@H](C)CC)N(C)C(=O)C [epoxomicin]
# Procedure, shortened: as §1
# [3] = compound: CCn1c(C(=O)N(C2CC2)C2CC2)cc2c3c(ncn3C)c(Nc3cc(C)n(C)n3)nc21
# Procedure, shortened: as §1
# [4] = compound: CCn1cc(-c2ccnc3[nH]c(-c4cccc(CN(C)C)c4)cc23)c(-c2ccc(NC(=O)N(C)C)cc2)n1
# Procedure, shortened: as §1
# [5] = compound: CN(C)CC(=O)Nc1ccc2[nH]c(=O)c3ccccc3c2c1
# Procedure, shortened: as §1
# rosiglitazone = compound: CN(CCOC1=CC=C(C=C1)C[C@H]2C(=O)NC(=O)S2)C3=CC=CC=N3 (racemic) [rosiglitazone]
# Procedure, shortened: as §1
# [6] = compound: CN1C2=C(C3=C1C(=O)N(N=C3)CC4=CC(=CC=C4)N)SC(=C2)S(=O)C
# Procedure, shortened: as §1
# [7] = compound: CN1CCC(CNc2ccc3ncc(-c4cccc(OC(F)(F)F)c4)n3n2)CC1
# Procedure, shortened: as §1
Target,log2 fold change [1],log2 fold change (volasertib),log2 fold change [2],log2 fold change (epoxomicin),log2 fold change [3],log2 fold change [4],log2 fold change [5],log2 fold change (rosiglitazone),log2 fold change [6],log2 fold change [7]
NUP93 (UniProt Q8N1F7),inactive: -0.059,inactive: -0.206,inactive: 0.083,inactive: -0.011,inactive: -0.059,inactive: -0.002,inactive: 0.036,inactive: 0.066,inactive: 0.036,inactive: -0.083
NUP153 (UniProt P49790),inactive: -0.03,inactive: -0.086,inactive: -0.019,inactive: -0.007,inactive: 0.043,inactive: 0.002,inactive: -0.028,inactive: -0.021,inactive: 0.042,inactive: 0.024
P3H1 (UniProt Q32P28),inactive: -0.003,inactive: 0.008,inactive: 0.022,inactive: -0.006,inactive: 0.009,inactive: 0.054,inactive: -0.017,inactive: -0.05,inactive: 0.088,inactive: 0.113
PA2G4 (UniProt Q9UQ80),inactive: 0.038,inactive: 0.072,inactive: 0.04,inactive: 0.079,inactive: -0.01,inactive: -0.078,inactive: -0.016,inactive: 0.054,inactive: -0.023,inactive: 0.007
P4HA1 isoform 2 (UniProt P13674),inactive: 0.004,inactive: 0.045,inactive: 0.069,inactive: 0.069,–,inactive: 0.022,inactive: -0.02,inactive: 0.002,inactive: 0.136,inactive: 0.078
OXR1 isoform 2 (UniProt Q8N573),inactive: -0.092,inactive: -0.09,inactive: -0.082,inactive: 0.127,–,inactive: 0.056,inactive: -0.004,–,inactive: -0.015,inactive: -0.244
OXSM (UniProt Q9NWU1),inactive: -0.063,inactive: -0.017,inactive: -0.022,inactive: 0.018,–,inactive: -0.003,inactive: -0.005,–,inactive: -0.025,inactive: 0.058
OAT (UniProt P04181),inactive: 0.049,inactive: 0.1,inactive: 0.021,inactive: 0.043,–,inactive: -0.1,inactive: 0.004,–,inactive: -0.102,inactive: -0.164
NUCB2 (UniProt P80303),inactive: 0.045,inactive: 0.06,inactive: -0.01,inactive: -0.006,inactive: 0.016,inactive: 0.003,inactive: -0.027,inactive: 0.003,inactive: 0.01,inactive: 0.04
NUDT15 (UniProt Q9NV35),inactive: 0.002,inactive: -0.088,inactive: -0.006,inactive: 0.067,inactive: -0.021,inactive: 0.14,inactive: 0.064,inactive: 0.068,inactive: -0.082,inactive: 0.354
NUP214 isoform 5 (UniProt P35658),inactive: -0.057,inactive: -0.285,inactive: 0.056,inactive: 0.022,inactive: -0.054,inactive: 0.08,inactive: 0.02,inactive: 0.007,inactive: 0.226,inactive: 0.015
OGFR (UniProt Q9NZT2),inactive: 0.026,inactive: -0.103,inactive: 0.167,inactive: -0.076,–,inactive: -0.041,inactive: 0.142,–,inactive: -0.027,inactive: -0.134
OSBPL8 (UniProt Q9BZF1),inactive: -0.068,inactive: -0.026,inactive: 0.062,inactive: -0.118,–,inactive: 0.061,inactive: 0.055,–,inactive: 0.09,inactive: -0.114
NUP107 (UniProt P57740),inactive: 0.038,inactive: -0.182,inactive: 0.106,inactive: -0.053,–,inactive: 0.169,inactive: -0.048,–,inactive: 0.053,active: 0.628
OARD1 (UniProt Q9Y530),inactive: -0.077,inactive: -0.152,inactive: 0.003,inactive: 0.037,inactive: -0.058,–,inactive: 0.078,inactive: 0.089,inactive: 0.013,–
NSUN7 (UniProt Q8NE18),inactive: 0.197,inactive: 0.133,inactive: -0.008,inactive: -0.105,inactive: -0.052,inactive: 0.311,inactive: -0.115,inactive: 0.079,–,inactive: -0.285
OPA3 (UniProt Q9H6K4),inactive: 0.043,inactive: 0.072,inactive: 0.067,inactive: 0.108,inactive: 0.022,–,inactive: -0.039,inactive: 0.064,inactive: 0.002,–
NUP42 (UniProt O15504),inactive: 0.206,inactive: 0.193,inactive: -0.221,inactive: -0.412,inactive: 0.074,inactive: 0.381,–,inactive: -0.301,inactive: 0.256,inactive: 0.393
OGA (UniProt O60502),inactive: -0.032,inactive: -0.21,inactive: 0.01,inactive: 0.005,inactive: -0.005,inactive: -0.024,inactive: 0.004,inactive: 0.025,inactive: -0.058,inactive: 0.008
NUDT12 (UniProt Q9BQG2),inactive: -0.053,inactive: -0.016,inactive: 0.076,inactive: 0.067,inactive: 0.042,inactive: -0.056,inactive: 0.035,inactive: 0.023,inactive: 0.076,inactive: 0.076
NT5DC3 (UniProt Q86UY8),inactive: 0.003,inactive: -0.009,inactive: 0.015,inactive: 0.053,inactive: 0.021,inactive: 0.1,inactive: 0.002,inactive: 0.015,inactive: -0.057,inactive: -0.038
NUBP1 (UniProt P53384),inactive: 0.001,inactive: -0.013,inactive: 0.019,inactive: 0.019,inactive: 0.022,inactive: -0.019,inactive: 0.043,inactive: 0.061,inactive: -0.051,inactive: -0.116
NUB1 (UniProt Q9Y5A7),inactive: -0.014,inactive: -0.5,inactive: 0.065,inactive: 0.04,inactive: -0.046,inactive: 0.034,inactive: 0.073,inactive: 0.089,inactive: 0.161,inactive: -0.142
OGFOD1 (UniProt Q8N543),inactive: 0.049,inactive: 0.038,inactive: -0.025,inactive: 0.042,–,inactive: -0.013,inactive: -0.022,–,inactive: -0.022,inactive: -0.051
ORC2 (UniProt Q13416),inactive: 0.044,inactive: -0.333,inactive: 0.047,inactive: 0.052,inactive: -0.086,inactive: -0.075,–,inactive: 0.06,–,inactive: -0.318
NUDT3 (UniProt O95989),inactive: -0.056,inactive: 0.007,inactive: -0.049,inactive: -0.007,inactive: 0.049,inactive: -0.068,inactive: 0,inactive: 0.004,inactive: 0,inactive: 0
OTUD7B (UniProt Q6GQQ9),inactive: -0.293,inactive: -0.276,inactive: 0.114,inactive: -0.005,inactive: -0.079,inactive: 0.141,inactive: 0.008,inactive: 0.325,inactive: 0.081,inactive: -0.242

# Individual results from above:
# NUDT3 (UniProt O95989) – log2 fold change [2]: inactive: -0.049
# P4HA1 isoform 2 (UniProt P13674) – log2 fold change [5]: inactive: -0.02

# Given with tabs: entries from further up
Target	log2 fold change [1]	log2 fold change (volasertib)	log2 fold change [2]	log2 fold change (epoxomicin)	log2 fold change [3]	log2 fold change [4]	log2 fold change [5]	log2 fold change (rosiglitazone)	log2 fold change [6]	log2 fold change [7]
NUP214 isoform 5 (UniProt P35658)	inactive: -0.057	inactive: -0.285	inactive: 0.056	inactive: 0.022	inactive: -0.054	inactive: 0.08	inactive: 0.02	inactive: 0.007	inactive: 0.226	inactive: 0.015
OGFR (UniProt Q9NZT2)	inactive: 0.026	inactive: -0.103	inactive: 0.167	inactive: -0.076	–	inactive: -0.041	inactive: 0.142	–	inactive: -0.027	inactive: -0.134

# From the supplement of paper PMC10849652
